These are yes or no findings as the source states them, for the method shown. Some binding calls cover weakened binding; strength is not graded here.
Columns and labels:
[1] = molecular target: wild type human EGFR on cells (A431, NHEK, SCC-15, H292) (human) (UniProt P00533); assay: FACS on normal human epidermal keratinocytes (NHEK)
[2] = molecular target: EGFRvIII on U87MG cells (human) (UniProt P00533); assay: competition FACS on U87MG cells expressing EGFRvIII, competitor FITC-labelled Ab1
[3] = molecular target: wild type human EGFR on cells (A431, NHEK, SCC-15, H292) (human) (UniProt P00533); assay: summing-up sentence of the example; binding compared with Ab1, method not given
[4] = molecular target: EGFRvIII on U87MG cells (human) (UniProt P00533); assay: competition FACS on U87MG de2-7 cells expressing EGFRvIII; competitor Ab1-FITC at 100 nM
[5] = molecular target: wild type human EGFR on cells (A431, NHEK, SCC-15, H292) (human) (UniProt P00533); assay: FACS binding to normal human epidermal keratinocytes (NHEK), AlexaFluor 488 secondary antibody

Measured: binding

B1: Antibody P (AbP) (antibody, V domains shown)
VH: EVQLQESGPGLVKPSQTLSLTCTVSGYSISHDFAWNWIRQPPGKGLEWMGYISYSGNTRYQPSLKSRITISRDTSKNQFFLKLNSVTAADTATYYCVTASWGLPWWGQGTLVTVSS
VL: DIQMTQSPSSMSVSVGDRVTITCHSSQDINMNVGWLQQKPGKSFKGLIYHGAILDDGVPSRFSGSGSGTDYTLTISSLQPEDFATYYCVQYAEFPWTFGGGTKLEIK
notes: Full length IgG1
binds: all assays above

From patent US20150337042A1 (AbbVie / Abbott, published 2015)
